# From the odorant receptor screen of Mainland et al. (2015)
# Values joined by “and” are separate entries in the source; they are usually repeats but may differ in a detail not shown here. Equal values may be shown once. The list shows a part of the results. Each value is one well over the wells without odorant, computed here; the data are noisy.
# How the values were obtained:
# Assay in all cases: odorant receptor activation (CRE luciferase / Renilla) (fold of no-odor wells); higher = more activation
# Settings in all cases: 100 µM
# OR1J2 clone 1443 = system: OR1J2 clone 1443
# OR1J4 clone 1429 = system: OR1J4 clone 1429
# OR1K1 clone 1315 = system: OR1K1 clone 1315
# OR1L1 clone 1379 = system: OR1L1 clone 1379
# OR1L3 clone 1090 = system: OR1L3 clone 1090
# OR1L4 G234R clone 1102 = system: OR1L4 G234R clone 1102
# [1] = system: OR1L6 Q23K/C150Y/I215T/R221Q/M223I/G234R clone 1539
# OR1L8 clone 1088 = system: OR1L8 clone 1088
# OR1M1 clone 1198 = system: OR1M1 clone 1198
# OR1N1 clone 1463 = system: OR1N1 clone 1463
Structure (SMILES),odorant receptor activation (OR1J2 clone 1443),odorant receptor activation (OR1J4 clone 1429),odorant receptor activation (OR1K1 clone 1315),odorant receptor activation (OR1L1 clone 1379),odorant receptor activation (OR1L3 clone 1090),odorant receptor activation (OR1L4 G234R clone 1102),odorant receptor activation [1],odorant receptor activation (OR1L8 clone 1088),odorant receptor activation (OR1M1 clone 1198),odorant receptor activation (OR1N1 clone 1463)
CCOc1cc(C=O)ccc1O [ethyl vanillin],1.22 and 1.32,1.45 and 1.17,1.79 and 1.2,0.94 and 1.19,2.21 and 1.07,1.33 and 1.27,0.862,1.1 and 1.18,1.41 and 1.36,1.6 and 2.28 and 1.21
CCCCOC(C)=O [butyl acetate],0.3,0.247,0.738,0.231,1.08,1.15,1.25,1.2,0.918,0.863
CS [methanethiol],1.38,1.05,0.241,0.881,1.13,1.05,1.12,0.894,1.21,0.945
CCC(C)=O [2-butanone],1.05,1.03,1.06,0.992,28.7,17,1.13,2.7,0.992,0.846
